# In patent publication US5320957:
# Molecular target: T1, M.DdeI methyltransferase (clone pDdeM1.6) (Desulfovibrio desulfuricans) (UniProt P05302)
# T1 sequence (looked up, limits assumed): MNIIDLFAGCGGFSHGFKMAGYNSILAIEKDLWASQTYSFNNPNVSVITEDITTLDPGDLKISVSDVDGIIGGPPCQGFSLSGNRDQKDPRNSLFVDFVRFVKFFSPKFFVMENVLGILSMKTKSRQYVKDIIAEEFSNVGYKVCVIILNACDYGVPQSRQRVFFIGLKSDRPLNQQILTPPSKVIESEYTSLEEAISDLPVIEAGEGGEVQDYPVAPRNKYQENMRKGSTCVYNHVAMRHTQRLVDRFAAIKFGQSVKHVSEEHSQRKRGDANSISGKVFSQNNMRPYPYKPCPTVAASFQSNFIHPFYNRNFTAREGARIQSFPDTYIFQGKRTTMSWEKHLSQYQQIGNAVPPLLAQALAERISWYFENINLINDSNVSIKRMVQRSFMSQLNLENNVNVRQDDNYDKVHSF
# Assay: activity assay
# Settings: methylation of the lambda MluI fragment blocks Sau3A cleavage (new 652 bp fragment); cytosine methylase; protein in a lysate after overexpression; protein details: expressed from plasmid clones in E. coli
sequence,measurement,value
GATCTCAG (double strand) [lambda DNA overlapping Sau3A/DdeI site (position 2532)],activity on this sequence,active

# Tags and fusion partners may be left off the protein sequences shown.
